Drawing on PMC8084160, this text covers binding for one substance.

Chains of the proteins cited; added tags and fusions are not shown. Lines headed by an entry give the natural chain unless they say otherwise; changes in a name come on top.
UniProt P24268: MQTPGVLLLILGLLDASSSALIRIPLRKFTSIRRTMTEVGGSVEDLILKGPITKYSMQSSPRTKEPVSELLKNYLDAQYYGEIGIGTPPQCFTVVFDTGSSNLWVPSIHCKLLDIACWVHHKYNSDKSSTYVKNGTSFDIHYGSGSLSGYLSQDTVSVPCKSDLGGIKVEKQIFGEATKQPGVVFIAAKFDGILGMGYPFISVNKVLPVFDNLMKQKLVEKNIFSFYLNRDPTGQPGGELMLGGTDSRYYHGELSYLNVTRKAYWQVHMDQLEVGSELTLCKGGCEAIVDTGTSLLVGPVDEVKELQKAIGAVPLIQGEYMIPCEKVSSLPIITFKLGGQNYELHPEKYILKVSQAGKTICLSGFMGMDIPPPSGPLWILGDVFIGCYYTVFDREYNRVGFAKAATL

Results are given in words; binding and its absence hold for the method and conditions named. In cells and extracts the contact can be indirect. Binding can be weak; no strength is given.

This assay concerns the target T1, prosaposin (rat (endogenous in epididymal fluid of Sprague-Dawley rats)) (UniProt P10960).
T1 sequence: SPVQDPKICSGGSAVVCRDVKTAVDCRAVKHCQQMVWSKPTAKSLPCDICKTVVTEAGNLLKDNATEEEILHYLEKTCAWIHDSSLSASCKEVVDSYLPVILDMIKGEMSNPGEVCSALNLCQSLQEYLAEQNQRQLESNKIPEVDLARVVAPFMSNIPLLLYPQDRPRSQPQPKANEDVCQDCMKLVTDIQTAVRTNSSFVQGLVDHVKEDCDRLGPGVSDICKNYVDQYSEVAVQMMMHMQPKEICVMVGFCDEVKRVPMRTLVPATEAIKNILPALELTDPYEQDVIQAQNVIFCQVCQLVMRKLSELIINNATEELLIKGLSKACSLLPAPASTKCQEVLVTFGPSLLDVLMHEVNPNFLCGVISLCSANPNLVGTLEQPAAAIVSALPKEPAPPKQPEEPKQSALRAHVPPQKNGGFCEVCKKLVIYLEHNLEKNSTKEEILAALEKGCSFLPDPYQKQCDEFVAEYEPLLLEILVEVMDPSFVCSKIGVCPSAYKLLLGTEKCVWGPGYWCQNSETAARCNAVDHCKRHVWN
Nature of the assay: co-IP; anti-prosaposin antibody on protein A sepharose beads incubated 16 h at 4°C with 1 ml epididymal fluid (IS/caput, corpus, cauda) of control and castrated rats; washed with PBS; cathepsin D detected by immunoblot.

In the case of “procathepsin D (from UniProt P24268) (enzyme)”, the binding result is listed as “binds”.
